The assay deals with Escherichia coli chaperonin GroEL (Escherichia coli) (UniProt P0A6F5). The assay can be described thus: cryo-EM structure.

By UniProt entry, the sequences of proteins in these tests, tags left out. Where a name states a change or a piece, a line headed by the entry shows the natural chain unless it says otherwise.
UniProt P0A6F5: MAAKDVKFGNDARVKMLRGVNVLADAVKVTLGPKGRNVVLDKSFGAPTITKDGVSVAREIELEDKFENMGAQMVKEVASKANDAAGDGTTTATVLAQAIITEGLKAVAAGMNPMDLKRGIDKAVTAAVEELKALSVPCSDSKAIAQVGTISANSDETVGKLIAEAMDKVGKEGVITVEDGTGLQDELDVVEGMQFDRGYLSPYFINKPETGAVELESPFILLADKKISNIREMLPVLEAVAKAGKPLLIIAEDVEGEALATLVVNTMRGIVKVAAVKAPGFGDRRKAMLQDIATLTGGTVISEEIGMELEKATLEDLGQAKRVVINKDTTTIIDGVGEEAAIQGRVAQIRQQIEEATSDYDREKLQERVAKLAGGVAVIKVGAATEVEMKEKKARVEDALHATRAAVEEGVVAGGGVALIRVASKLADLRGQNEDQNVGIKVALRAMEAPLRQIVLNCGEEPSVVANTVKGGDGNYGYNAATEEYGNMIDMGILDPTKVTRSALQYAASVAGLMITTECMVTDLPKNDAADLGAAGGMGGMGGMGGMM
UniProt P19224: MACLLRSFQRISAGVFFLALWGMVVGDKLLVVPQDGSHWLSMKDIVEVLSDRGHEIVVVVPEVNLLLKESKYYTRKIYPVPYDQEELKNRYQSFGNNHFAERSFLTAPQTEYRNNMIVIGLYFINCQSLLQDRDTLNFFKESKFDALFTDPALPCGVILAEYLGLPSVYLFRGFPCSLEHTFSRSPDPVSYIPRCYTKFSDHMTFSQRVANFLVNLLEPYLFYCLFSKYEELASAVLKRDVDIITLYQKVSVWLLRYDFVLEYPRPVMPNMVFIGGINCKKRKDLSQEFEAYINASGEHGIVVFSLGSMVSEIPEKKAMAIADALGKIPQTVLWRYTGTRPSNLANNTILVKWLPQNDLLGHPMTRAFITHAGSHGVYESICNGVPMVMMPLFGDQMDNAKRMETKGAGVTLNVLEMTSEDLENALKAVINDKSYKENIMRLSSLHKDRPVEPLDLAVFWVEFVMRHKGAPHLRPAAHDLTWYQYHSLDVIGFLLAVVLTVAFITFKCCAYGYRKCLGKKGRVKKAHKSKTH

Results are given in words; binding and its absence hold for the method and conditions named. Binding seen in cells or lysates may run through a third protein. A result given as binding can be weak or reduced; the word gives no strength.

Consider “His6-TrxA-tagged water-soluble domain of human UDP glucuronosyltransferase 1A (UGT1A) (from UniProt P19224) (domain or fragment)”, for which the binding result is reported as “binds”.

The record behind these values is article doi:10.1101/2022.09.15.508192.
